Assay results published in paper PMC10416611.
No constants are given. Whether binding was seen depends on the method and setting. In cells and extracts the contact can be indirect. Here binding means that the protein was enriched with, or labelled near, the bait; the list need not be complete.

The chains behind the UniProt entries cited, without tags or fusion partners.
UniProt O22130: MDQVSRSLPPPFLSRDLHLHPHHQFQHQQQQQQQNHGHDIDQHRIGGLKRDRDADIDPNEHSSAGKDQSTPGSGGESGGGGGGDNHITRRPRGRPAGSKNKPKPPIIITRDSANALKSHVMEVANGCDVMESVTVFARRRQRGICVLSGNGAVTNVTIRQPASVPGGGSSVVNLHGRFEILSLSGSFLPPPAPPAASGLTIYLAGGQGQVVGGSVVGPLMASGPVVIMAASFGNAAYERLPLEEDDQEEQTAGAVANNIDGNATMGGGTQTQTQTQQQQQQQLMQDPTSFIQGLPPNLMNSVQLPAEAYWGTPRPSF
UniProt O49662: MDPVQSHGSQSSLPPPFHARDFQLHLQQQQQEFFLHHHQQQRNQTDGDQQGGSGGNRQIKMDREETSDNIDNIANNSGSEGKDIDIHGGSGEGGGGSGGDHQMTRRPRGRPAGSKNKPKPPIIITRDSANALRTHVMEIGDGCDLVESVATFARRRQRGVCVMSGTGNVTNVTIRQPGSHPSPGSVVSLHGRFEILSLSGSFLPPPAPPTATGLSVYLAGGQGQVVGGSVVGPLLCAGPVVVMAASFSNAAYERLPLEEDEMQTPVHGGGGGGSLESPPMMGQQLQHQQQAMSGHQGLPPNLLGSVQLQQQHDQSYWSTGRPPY
UniProt Q9S7C9: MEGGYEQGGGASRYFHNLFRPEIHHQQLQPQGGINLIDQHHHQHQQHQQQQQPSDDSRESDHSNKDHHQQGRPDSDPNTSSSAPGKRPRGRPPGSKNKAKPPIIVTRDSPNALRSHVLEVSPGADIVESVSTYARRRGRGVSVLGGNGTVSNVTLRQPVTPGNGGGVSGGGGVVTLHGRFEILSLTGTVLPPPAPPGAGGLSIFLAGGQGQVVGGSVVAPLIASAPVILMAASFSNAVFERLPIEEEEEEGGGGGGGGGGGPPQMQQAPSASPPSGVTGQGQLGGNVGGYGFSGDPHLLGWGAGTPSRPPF
UniProt P22953: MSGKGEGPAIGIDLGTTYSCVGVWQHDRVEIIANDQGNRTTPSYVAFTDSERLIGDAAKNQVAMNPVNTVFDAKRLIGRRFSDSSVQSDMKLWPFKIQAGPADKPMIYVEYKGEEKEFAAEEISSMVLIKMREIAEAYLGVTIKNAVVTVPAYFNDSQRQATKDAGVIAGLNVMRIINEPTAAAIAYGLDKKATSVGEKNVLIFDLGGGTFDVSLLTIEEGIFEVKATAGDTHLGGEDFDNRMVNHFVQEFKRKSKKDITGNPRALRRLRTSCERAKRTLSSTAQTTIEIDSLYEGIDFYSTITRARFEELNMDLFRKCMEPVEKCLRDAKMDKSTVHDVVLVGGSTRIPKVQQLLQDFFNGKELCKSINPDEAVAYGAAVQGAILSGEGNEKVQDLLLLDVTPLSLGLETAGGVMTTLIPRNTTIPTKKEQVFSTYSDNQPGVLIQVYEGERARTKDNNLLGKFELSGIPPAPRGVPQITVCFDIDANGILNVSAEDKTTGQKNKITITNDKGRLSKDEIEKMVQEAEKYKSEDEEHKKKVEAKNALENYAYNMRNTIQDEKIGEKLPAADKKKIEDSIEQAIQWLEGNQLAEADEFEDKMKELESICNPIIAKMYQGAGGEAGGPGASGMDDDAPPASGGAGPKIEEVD
UniProt P22954: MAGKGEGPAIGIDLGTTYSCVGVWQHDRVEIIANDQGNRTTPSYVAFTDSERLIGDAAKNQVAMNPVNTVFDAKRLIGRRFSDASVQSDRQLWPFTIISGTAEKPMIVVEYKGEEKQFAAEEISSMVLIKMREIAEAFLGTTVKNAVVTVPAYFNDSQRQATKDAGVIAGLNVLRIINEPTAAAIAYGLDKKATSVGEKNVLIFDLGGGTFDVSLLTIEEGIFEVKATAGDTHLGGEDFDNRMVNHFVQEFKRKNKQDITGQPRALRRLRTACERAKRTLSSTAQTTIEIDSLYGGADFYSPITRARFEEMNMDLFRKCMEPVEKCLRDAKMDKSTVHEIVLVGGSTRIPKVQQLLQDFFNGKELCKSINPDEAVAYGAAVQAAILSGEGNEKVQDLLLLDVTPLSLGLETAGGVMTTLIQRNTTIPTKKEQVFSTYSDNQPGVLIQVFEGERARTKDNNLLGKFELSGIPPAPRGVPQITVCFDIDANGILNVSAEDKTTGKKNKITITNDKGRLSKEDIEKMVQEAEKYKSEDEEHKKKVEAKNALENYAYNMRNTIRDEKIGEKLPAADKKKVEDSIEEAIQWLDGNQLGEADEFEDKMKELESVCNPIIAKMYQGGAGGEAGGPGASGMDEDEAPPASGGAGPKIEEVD

target: GFP-AHL17 fusion protein (Arabidopsis thaliana) (UniProt Q9LTA2); assay: affinity purification with mass spectrometry; proteins extracted from 7-day-old 35S::GFP-AHL17 Arabidopsis seedlings (methods: roots), precipitated with anti-GFP antibody, mass spectrometry; WT plants as negative control

Row | Substance | binding
1 | AHL22 (endogenous) (from UniProt O22130 1-317) | binds
2 | AHL24 (endogenous) (from UniProt O49662 1-324) | binds
3 | AHL27 (endogenous) (from UniProt Q9S7C9 1-311) | binds
4 | HEAT SHOCK PROTEIN 70-1 (endogenous) (from UniProt P22953 1-651) | binds
5 | HSP70-2 (endogenous) (from UniProt P22954 1-653) | binds
